No constants are given. Whether binding was seen depends on the method and setting. In cells and extracts the contact can be indirect. Some results given as binding are weak or reduced against the parent protein; the word gives no strength.
B1: endogenous CYLD (mouse primary epidermal keratinocytes) (enzyme, UniProt Q80TQ2 1-952)
chain: MSSGLWSQEKVTSPYWEERIFYLLLQECSVTDKQTQKLLKVPKGSIGQYIQDRSVGHSRVPSTKGKKNQIGLKILEQPHAVLFVDEKDVVEINEKFTELLLAITNCEERLSLFRNRLRLSKGLQVDVGSPVKVQLRSGEEKFPGVVRFRGPLLAERTVSGIFFGVELLEEGRGQGFTDGVYQGKQLFQCDEDCGVFVALDKLELIEDDDNGLESDFAGPGDTMQVEPPPLEINSRVSLKVGESTESGTVIFCDVLPGKESLGYFVGVDMDNPIGNWDGRFDGVQLCSFASVESTILLHINDIIPDSVTQERRPPKLAFMSRGVGDKGSSSHNKPKVTGSTSDPGSRNRSELFYTLNGSSVDSQQSKSKNPWYIDEVAEDPAKSLTEMSSDFGHSSPPPQPPSMNSLSSENRFHSLPFSLTKMPNTNGSMAHSPLSLSVQSVMGELNSTPVQESPPLPISSGNAHGLEVGSLAEVKENPPFYGVIRWIGQPPGLSDVLAGLELEDECAGCTDGTFRGTRYFTCALKKALFVKLKSCRPDSRFASLQPVSNQIERCNSLAFGGYLSEVVEENTPPKMEKEGLEIMIGKKKGIQGHYNSCYLDSTLFCLFAFSSALDTVLLRPKEKNDIEYYSETQELLRTEIVNPLRIYGYVCATKIMKLRKILEKVEAASGFTSEEKDPEEFLNILFHDILRVEPLLKIRSAGQKVQDCNFYQIFMEKNEKVGVPTIQQLLEWSFINSNLKFAEAPSCLIIQMPRFGKDFKLFKKIFPSLELNITDLLEDTPRQCRICGGLAMYECRECYDDPDISAGKIKQFCKTCSTQVHLHPRRLNHSYHPVSLPKDLPDWDWRHGCIPCQKMELFAVLCIETSHYVAFVKYGKDDSAWLFFDSMADRDGGQNGFNIPQVTPCPEVGEYLKMSLEDLHSLDSRRIQGCARRLLCDAYMCMYQSPTMSLYK
B2: CYLDR936X (enzyme, UniProt Q9NQC7 1-935)
chain: MSSGLWSQEKVTSPYWEERIFYLLLQECSVTDKQTQKLLKVPKGSIGQYIQDRSVGHSRIPSAKGKKNQIGLKILEQPHAVLFVDEKDVVEINEKFTELLLAITNCEERFSLFKNRNRLSKGLQIDVGCPVKVQLRSGEEKFPGVVRFRGPLLAERTVSGIFFGVELLEEGRGQGFTDGVYQGKQLFQCDEDCGVFVALDKLELIEDDDTALESDYAGPGDTMQVELPPLEINSRVSLKVGETIESGTVIFCDVLPGKESLGYFVGVDMDNPIGNWDGRFDGVQLCSFACVESTILLHINDIIPALSESVTQERRPPKLAFMSRGVGDKGSSSHNKPKATGSTSDPGNRNRSELFYTLNGSSVDSQPQSKSKNTWYIDEVAEDPAKSLTEISTDFDRSSPPLQPPPVNSLTTENRFHSLPFSLTKMPNTNGSIGHSPLSLSAQSVMEELNTAPVQESPPLAMPPGNSHGLEVGSLAEVKENPPFYGVIRWIGQPPGLNEVLAGLELEDECAGCTDGTFRGTRYFTCALKKALFVKLKSCRPDSRFASLQPVSNQIERCNSLAFGGYLSEVVEENTPPKMEKEGLEIMIGKKKGIQGHYNSCYLDSTLFCLFAFSSVLDTVLLRPKEKNDVEYYSETQELLRTEIVNPLRIYGYVCATKIMKLRKILEKVEAASGFTSEEKDPEEFLNILFHHILRVEPLLKIRSAGQKVQDCYFYQIFMEKNEKVGVPTIQQLLEWSFINSNLKFAEAPSCLIIQMPRFGKDFKLFKKIFPSLELNITDLLEDTPRQCRICGGLAMYECRECYDDPDISAGKIKQFCKTCNTQVHLHPKRLNHKYNPVSLPKDLPDWDWRHGCIPCQNMELFAVLCIETSHYVAFVKYGKDDSAWLFFDSMADRDGGQNGFNIPQVTPCPEVGEYLKMSLEDLHSLDSRRIQGCA

The chains behind the UniProt entries cited, without tags or fusion partners.
UniProt P02340: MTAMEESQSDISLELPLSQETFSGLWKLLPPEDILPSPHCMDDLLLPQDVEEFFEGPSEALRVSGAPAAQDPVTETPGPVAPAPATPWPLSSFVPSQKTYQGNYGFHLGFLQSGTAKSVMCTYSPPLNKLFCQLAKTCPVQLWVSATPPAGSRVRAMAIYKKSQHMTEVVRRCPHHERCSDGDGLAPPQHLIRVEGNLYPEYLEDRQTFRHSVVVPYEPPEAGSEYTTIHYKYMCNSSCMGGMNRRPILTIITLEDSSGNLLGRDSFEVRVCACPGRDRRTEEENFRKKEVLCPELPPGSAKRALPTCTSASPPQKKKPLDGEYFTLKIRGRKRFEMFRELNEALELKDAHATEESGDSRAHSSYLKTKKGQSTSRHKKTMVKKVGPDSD

How the values were obtained:
[1] = target: endogenous p53 (mouse primary epidermal keratinocytes) (mouse (endogenous in primary epidermal keratinocytes)) (UniProt P02340); test: co-IP; endogenous p53 immunoprecipitated from primary keratinocytes or HCT116 cells treated with CpT for the indicated time points; blot with anti-CYLD
[2] = target: p53 expressed in HEK-293 T cells (ubiquitination experiments) (UniProt P04637); test: co-IP; p53 immunoprecipitated (anti-p53 1C12) from transfected HEK-293 T cells treated with MG-132/CpT; lysis in IP buffer with 8 M urea, diluted to 1 M urea before the antibody; blot with anti-CYLD

Binder | binding [1] | binding [2]
B1 | binds | –
B2 | – | binds

Source: paper PMC5007442
